Reference: article PMC2980477
No constants are given. Whether binding was seen depends on the method and setting. Binding seen in cells or lysates may run through a third protein. Sequences can lack the tags named with a protein.

The chains behind the UniProt entries cited, without tags or fusion partners. Where a name states a change or a piece, a line headed by the entry shows the natural chain unless it says otherwise.
UniProt P43403: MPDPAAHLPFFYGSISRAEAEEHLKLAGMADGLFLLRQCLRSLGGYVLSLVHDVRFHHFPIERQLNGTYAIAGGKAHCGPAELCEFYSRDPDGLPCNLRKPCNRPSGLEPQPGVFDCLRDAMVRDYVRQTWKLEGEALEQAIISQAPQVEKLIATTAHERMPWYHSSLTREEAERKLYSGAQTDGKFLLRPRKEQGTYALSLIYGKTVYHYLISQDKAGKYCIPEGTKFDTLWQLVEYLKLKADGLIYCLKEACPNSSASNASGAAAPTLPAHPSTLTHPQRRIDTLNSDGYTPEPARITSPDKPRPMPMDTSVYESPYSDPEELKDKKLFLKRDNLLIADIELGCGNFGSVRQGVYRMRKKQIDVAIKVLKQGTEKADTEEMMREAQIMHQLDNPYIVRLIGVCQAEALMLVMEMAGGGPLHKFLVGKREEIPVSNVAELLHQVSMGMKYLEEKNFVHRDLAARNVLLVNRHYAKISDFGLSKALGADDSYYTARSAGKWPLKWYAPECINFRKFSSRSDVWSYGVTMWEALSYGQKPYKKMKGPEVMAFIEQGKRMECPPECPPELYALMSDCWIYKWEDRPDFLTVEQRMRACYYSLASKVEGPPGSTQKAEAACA
UniProt P06239: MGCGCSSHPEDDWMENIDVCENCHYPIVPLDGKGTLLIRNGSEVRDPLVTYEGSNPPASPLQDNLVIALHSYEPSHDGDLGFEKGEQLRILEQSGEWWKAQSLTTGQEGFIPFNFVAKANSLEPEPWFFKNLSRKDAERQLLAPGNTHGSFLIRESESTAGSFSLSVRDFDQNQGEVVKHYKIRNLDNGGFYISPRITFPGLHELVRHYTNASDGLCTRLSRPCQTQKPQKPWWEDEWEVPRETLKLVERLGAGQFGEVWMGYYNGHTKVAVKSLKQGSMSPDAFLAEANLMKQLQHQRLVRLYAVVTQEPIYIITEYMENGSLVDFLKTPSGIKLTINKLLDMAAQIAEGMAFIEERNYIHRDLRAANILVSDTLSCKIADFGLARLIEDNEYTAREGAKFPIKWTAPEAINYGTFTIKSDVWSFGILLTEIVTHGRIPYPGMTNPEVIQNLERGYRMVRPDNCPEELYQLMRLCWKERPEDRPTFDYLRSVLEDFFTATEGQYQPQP

Experiments:
HA-RhoH = target: T1, HA-RhoH (UniProt Q15669); test: co-IP; total lysates of HEK293 cells co-transfected with HA-RhoH, kinase-dead Lck (KD-Lck) and ZAP-70; IP with anti-ZAP-70 or anti-HA; immunoblot
T1 sequence: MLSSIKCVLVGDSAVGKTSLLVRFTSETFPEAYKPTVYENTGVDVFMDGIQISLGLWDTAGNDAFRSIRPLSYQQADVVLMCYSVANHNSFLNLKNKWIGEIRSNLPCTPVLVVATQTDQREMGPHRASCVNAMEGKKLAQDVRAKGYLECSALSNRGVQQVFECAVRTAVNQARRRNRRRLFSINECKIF

[1] = target: kinase-dead ZAP-70 (KA-ZAP-70) (UniProt P43403); test: co-IP; total lysates of HEK293 cells transfected with combinations of HA-RhoH, CA-Lck and ZAP-70 or KA-ZAP-70; IP with anti-HA or anti-ZAP-70; immunoblot

## kinase-dead Lck (KD-Lck) (from UniProt P06239)
HA-RhoH
  binding: no binding

B1: HA-RhoH (protein, UniProt Q15669 1-191)
chain: T1 sequence
[1]
  binding: no binding
